# Measured values taken from ChEMBL document CHEMBL4680353, “Synthesis, anticancer activity and molecular docking studies of N-deacetylthiocolchicine and 4-iodo-N-deacetylthiocolchicine derivatives” (Bioorg Med Chem, 2021).
# Key:
# [1] = test system: A549; assay: Antiproliferative activity against human A549 cells incubated for 72 hrs by SRB assay; format: functional, cell-based; conditions: A549, 72 h
# [2] = Resistance index, ratio of IC50 for antiproliferative activity against human Lovo/DX cells to IC50 for antiproliferative activity against human LoVo cells; format: functional
# [3] = Antiproliferative activity against human ALL5 cells incubated for 120 hrs followed by MTT addition further incubated for 48 hrs; format: functional, cell-based
# [4] = cells; format: functional, cell-based; conditions: Homo sapiens, LoVo/DX, 72 h
# [5] = test system: LoVo; assay: Antiproliferative activity against human LoVo cells incubated for 72 hrs by SRB assay; format: functional, cell-based
# [6] = test system: BALB/3T3; assay: Antiproliferative activity against mouse BALB/3T3 cells incubated for 72 hrs by SRB assay; format: ADME, cell-based; conditions: BALB/3T3, 72 h
# [7] = test system: MCF7; assay: Antiproliferative activity against human MCF-7 cells incubated for 72 hrs by SRB assay; conditions: MCF7, 72 h
compound,measurement,setting,value
COc1cc2c(c(OC)c1OC)-c1ccc(SC)c(=O)cc1[C@@H](N)CC2,IC50,[1],0.0241 µM
same,Ratio IC50,[2],8.6
same,IC50,[3],0.0163 µM
same,IC50,[4],0.145 µM
same,IC50,[5],0.0169 µM
same,IC50,[6],0.223 µM
same,IC50,[7],0.0142 µM
